For 37 molecules, maximal number results are on record in the supplement of paper PMC9549374.

For this assay, the system named is CM7/1-hgem mouse ES cell-derived cardiomyocytes. Nature of the assay: maximal number of mAG-hGem(1/110)-positive cardiomyocytes over 96 h, fold-change vs DMSO; higher = more cardiomyocyte cell cycle activity. The following applies: 1 µM; 96 (max over 12 h time points) h.

The list shows a part of the results. No stated cut-off is given here; in the data, active = 2-fold of DMSO or more and inactive = the rest. Single values of this set are uncertain. Some low values are a fixed figure set by the source, not a measured ratio.

With `CC(=O)O[C@H]1CC[C@]2(C)[C@H]3CC=C4[C@@H]5CC(C)(C)CC[C@]5(C)CC[C@@]4(C)[C@]3(C)CC[C@H]2C1(C)C` [beta-AMYRIN ACETATE], the maximal number is inactive: 1.

As to `CC1(C)C(=O)C=C[C@]2(C)[C@H]3CC[C@@]4(C)[C@H](c5ccoc5)OC(=O)[C@H]5O[C@]54[C@]3(C)C(=O)C[C@@H]12`, the maximal number is inactive: 1.

Turning to `CC(=O)Nc1ccc(CC(=O)O)cc1`, the maximal number is inactive: 1.

In the case of `COc1cc(-c2coc3cc(OCc4ccccc4)c(OC)c(O)c3c2=O)cc(OCc2ccccc2)c1OC`, the maximal number is inactive: 1.

In the case of `O=C(Oc1cc(O)cc2c1C[C@@H](OC(=O)c1cc(O)c(O)c(O)c1)[C@@H](c1cc(O)c(O)c(O)c1)O2)c1cc(O)c(O)c(O)c1`, the maximal number was inactive: 0.

`COc1ccc(O)cc1`: the maximal number is inactive: 0.5.

For `CC(C)c1c(C(=O)Nc2ccccc2)c(-c2ccccc2)c(-c2ccc(F)cc2)n1CC[C@@H](O)C[C@@H](O)CC(=O)O`, the maximal number was inactive: 1.

As to `Cc1ccc(NC(=O)c2ccc(CN3CCN(C)CC3)cc2)cc1Nc1nccc(-c2cccnc2)n1`, the maximal number was inactive: 1.

With `COc1cccc(-c2cc(=O)c3cc(OC)ccc3o2)c1`, the maximal number was inactive: 1.

For `C[C@]12CCC(=O)C=C1CC[C@@H]1[C@@H]2[C@@H](O)C[C@@]2(C)[C@H]1CC[C@]2(O)C(=O)CO`, the maximal number was inactive: 1.

As to `COc1c(O)cc(O)cc1O`, the maximal number was inactive: 1.

For the molecule `O=C(O)c1cc2cc(F)ccc2[nH]1`, the maximal number was inactive: 0.

Regarding `CC(C)=CCCC1(C)C=Cc2c(O)c3c(c(CC=C(C)C)c2O1)OC12C(=CCCC1C(C)(C)O[C@@]2(C/C=C(\C)C(=O)O)C(=O)O)C3=O` (some centres not stated), the maximal number was inactive: 1.

For the molecule `COc1c(OC)c2occc2c2oc(=O)ccc12`, the maximal number was inactive: 1.

Take `CCN(CC)C(=O)c1cccc(C)c1`: the maximal number is inactive: 1.

For the molecule `C[C@@H]1CC(=O)NN=C1c1ccc(NN=C(C#N)C#N)cc1`, the maximal number was inactive: 1.

In the case of `NC1=NCCN1CC(=O)O`, the maximal number is inactive: 1.

Turning to `C=CC(C1=CC(=O)C=CC1=O)c1ccccc1` (configuration not stated), the maximal number is inactive: 0.5.

On to `CC1(C)C[C@@H]2C(=O)CC[C@H]3O[C@]3(C)CC[C@H]21`, for which the maximal number is inactive: 1.

Consider `Cc1oc(=O)oc1CN1CCN(c2cc3c(cc2F)c(=O)c(C(=O)O)c2n3C(C)S2)CC1` (configuration not stated), for which the maximal number was inactive: 1.

As for `COC1=CC(=O)C=C(OC)C1=O`, the maximal number was inactive: 1.

As to `CCCCN1CCCCC1C(=O)Nc1c(C)cccc1C` (configuration not stated), the maximal number is inactive: 0.

Turning to `O=c1cccc2ccc(O)c(O)c2c1O`, the maximal number was inactive: 1.

`NC(=O)CC[C@H](N)C(=O)O`: the maximal number was inactive: 1.

Regarding `COc1cc([C@@H]2c3cc4c(cc3[C@@H](O[C@@H]3O[C@@H]5CO[C@@H](c6cccs6)O[C@H]5[C@H](O)[C@H]3O)[C@H]3COC(=O)[C@H]23)OCO4)cc(OC)c1O`, the maximal number is inactive: 1.

As for `CC(C(=O)O)[C@H]1CCC2C3CC=C4C[C@@H](O)CC[C@]4(C)C3CC[C@@]21C` (stereo partly drawn) [3beta-HYDROXY-23,24-BISNORCHOL-5-ENIC ACID], the maximal number was inactive: 1.

As for `CC1(C)C=Cc2cc3ccc(=O)oc3cc2O1`, the maximal number is inactive: 0.

Take `CCN[C@H]1CN(CCCOC)S(=O)(=O)c2sc(S(N)(=O)=O)cc21`: the maximal number was inactive: 1.

As to `C=CCCCCCCCCCCCC(O)CC(O)COC(C)=O` (configuration not stated), the maximal number is inactive: 0.

With `O=C1NCC2(CCN(CCc3ccccc3)CC2)O1`, the maximal number is inactive: 1.

`CC(=O)O[C@H]1CC[C@]2(C)C3=C(CC[C@H]2C1(C)C)[C@]1(C)CC[C@H]([C@H](C)CCC=C(C)C)[C@@]1(C)CC3`: the maximal number was inactive: 0.5.

Take `OCCN1CCN(CCCN2c3ccccc3Sc3ccc(C(F)(F)F)cc32)CC1`: the maximal number was inactive: 1.

Consider `COC(=O)C[C@H]1C(C)(C)C(=O)[C@@H]2CC3=C(CC[C@]4(C)C3=CC(=O)O[C@H]4c3ccoc3)[C@@]1(C)C2=O`, for which the maximal number was inactive: 1.

`O=C(/C=C/c1ccccc1)c1ccc(O)cc1`: the maximal number is inactive: 1.

As for `CC(=O)O[C@@]12CO[C@@H]1C[C@H](O)[C@@]1(C)C(=O)[C@H](O)C3=C(C)[C@@H](OC(=O)[C@H](O)[C@@H](NC(=O)OC(C)(C)C)c4ccccc4)C[C@@](O)([C@@H](OC(=O)c4ccccc4)[C@H]21)C3(C)C`, the maximal number is inactive: 1.

Turning to `O=C(Nc1ccccc1)Nc1ccccc1`, the maximal number is inactive: 1.

With `O=C1CCC(N2C(=O)c3ccccc3C2=O)C(=O)N1` (configuration not stated), the maximal number was inactive: 1.
